# Results of single-concentration screens

The chains behind the UniProt entries cited, without tags or fusion partners. Residues count along the entry.
UniProt P9WNZ1, whole entry: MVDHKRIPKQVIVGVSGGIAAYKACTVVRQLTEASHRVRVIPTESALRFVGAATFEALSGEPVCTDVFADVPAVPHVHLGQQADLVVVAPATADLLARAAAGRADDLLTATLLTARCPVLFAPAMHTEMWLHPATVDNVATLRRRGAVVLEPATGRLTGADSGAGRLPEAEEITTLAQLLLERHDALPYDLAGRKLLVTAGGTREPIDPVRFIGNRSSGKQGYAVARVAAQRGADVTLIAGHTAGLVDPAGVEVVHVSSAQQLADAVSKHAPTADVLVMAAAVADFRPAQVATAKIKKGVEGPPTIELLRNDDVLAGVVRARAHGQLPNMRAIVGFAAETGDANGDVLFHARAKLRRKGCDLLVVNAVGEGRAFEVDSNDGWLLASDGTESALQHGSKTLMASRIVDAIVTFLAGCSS
UniProt I6X8D2, whole entry: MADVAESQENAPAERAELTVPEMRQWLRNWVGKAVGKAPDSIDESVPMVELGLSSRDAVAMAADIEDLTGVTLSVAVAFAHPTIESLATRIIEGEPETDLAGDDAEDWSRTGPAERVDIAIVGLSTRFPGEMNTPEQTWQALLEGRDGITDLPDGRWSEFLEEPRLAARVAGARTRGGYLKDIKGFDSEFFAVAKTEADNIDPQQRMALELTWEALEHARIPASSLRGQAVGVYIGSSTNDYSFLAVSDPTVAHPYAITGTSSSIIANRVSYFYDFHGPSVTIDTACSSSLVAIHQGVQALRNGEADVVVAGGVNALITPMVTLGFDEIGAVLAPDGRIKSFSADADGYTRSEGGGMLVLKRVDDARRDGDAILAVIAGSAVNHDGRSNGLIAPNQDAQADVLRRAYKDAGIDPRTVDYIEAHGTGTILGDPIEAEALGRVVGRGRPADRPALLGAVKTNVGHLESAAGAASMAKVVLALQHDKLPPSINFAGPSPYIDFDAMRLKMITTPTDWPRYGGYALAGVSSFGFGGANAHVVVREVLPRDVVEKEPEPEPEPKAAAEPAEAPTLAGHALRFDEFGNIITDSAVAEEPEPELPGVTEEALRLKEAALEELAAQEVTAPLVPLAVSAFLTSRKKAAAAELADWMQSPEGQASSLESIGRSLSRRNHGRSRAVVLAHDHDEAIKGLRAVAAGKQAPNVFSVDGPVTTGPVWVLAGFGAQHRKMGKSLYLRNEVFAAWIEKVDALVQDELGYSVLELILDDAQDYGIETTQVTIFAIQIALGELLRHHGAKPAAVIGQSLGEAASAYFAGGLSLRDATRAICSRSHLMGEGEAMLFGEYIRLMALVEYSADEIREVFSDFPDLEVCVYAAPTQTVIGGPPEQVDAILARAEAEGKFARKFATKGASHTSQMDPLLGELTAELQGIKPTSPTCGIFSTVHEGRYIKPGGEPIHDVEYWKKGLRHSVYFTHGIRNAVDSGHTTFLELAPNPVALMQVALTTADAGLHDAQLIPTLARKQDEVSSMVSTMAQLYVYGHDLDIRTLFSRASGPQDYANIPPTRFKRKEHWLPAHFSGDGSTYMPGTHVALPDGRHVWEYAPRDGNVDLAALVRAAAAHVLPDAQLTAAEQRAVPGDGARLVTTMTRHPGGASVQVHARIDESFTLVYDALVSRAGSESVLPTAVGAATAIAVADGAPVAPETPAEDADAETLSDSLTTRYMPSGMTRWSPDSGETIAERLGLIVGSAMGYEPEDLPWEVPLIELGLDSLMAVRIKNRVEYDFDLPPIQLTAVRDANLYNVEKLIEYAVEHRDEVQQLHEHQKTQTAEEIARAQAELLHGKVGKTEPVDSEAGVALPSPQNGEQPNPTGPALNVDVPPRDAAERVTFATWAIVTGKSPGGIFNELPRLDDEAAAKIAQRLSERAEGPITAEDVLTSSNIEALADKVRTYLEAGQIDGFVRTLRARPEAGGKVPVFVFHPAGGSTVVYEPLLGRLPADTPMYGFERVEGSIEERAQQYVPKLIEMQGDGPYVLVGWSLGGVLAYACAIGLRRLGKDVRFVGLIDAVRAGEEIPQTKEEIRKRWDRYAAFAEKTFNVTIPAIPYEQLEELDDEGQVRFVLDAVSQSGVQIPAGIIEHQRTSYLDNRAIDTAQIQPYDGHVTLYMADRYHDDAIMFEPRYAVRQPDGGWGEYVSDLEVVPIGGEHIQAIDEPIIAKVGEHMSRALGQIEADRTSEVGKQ
UniProt P9WPC5, whole entry: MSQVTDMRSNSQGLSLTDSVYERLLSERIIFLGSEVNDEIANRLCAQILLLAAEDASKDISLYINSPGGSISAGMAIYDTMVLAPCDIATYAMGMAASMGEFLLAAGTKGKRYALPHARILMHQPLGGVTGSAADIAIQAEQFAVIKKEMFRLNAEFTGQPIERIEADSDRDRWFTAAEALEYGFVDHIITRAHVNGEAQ
UniProt P9WPC3, whole entry partner: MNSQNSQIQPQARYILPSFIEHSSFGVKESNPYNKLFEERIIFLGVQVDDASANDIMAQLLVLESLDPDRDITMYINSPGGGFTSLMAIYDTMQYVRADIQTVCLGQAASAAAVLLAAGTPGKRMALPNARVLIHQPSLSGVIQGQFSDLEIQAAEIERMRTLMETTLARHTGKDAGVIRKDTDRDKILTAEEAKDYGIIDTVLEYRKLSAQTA
UniProt Q4DA54, 1-478: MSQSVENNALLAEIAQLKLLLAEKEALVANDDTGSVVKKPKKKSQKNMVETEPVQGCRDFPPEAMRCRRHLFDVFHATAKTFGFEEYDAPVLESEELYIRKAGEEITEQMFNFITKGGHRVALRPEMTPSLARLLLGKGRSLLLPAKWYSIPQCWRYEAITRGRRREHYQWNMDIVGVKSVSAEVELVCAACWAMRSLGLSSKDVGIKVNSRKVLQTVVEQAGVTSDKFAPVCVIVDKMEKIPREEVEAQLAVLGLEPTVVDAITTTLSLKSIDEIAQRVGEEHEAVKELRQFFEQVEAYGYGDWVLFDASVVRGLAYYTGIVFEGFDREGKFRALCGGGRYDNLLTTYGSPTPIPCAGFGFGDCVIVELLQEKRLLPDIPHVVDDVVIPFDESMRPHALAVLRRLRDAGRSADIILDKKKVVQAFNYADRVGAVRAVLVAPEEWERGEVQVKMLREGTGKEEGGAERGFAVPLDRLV

From ChEMBL document CHEMBL3988442, “University of Dundee, Small-Polar-MMV Screening Library” (2021).

Results are given as percent effect.
How 0% and 100% were set is not recorded. Most values in the screen are low, and negative values occur.
The compounds are a random part of those screened.
Two or more numbers in one place are separate tests of the same structure; such repeats can differ widely.
A dash means the value is not listed here; it may have been measured.

A: 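Coenzyme A biosynthesis protein CoaBC, Mycobacterium tuberculosis (UniProt P9WNZ1). Enzyme assay of CoaBC with a phosphate dye (Biomol Green) read at 650 nm. Compounds at 30 µM. Direction is inferred from only a few compounds that gave an IC50; most scored high, so higher reads as stronger inhibition. Most strong results did not repeat in a second test. Size under these conditions: about 67,000 compounds, about 40 of them at 50% or above in at least one test.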
B: 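Cell assay of Leishmania donovani living inside macrophages; the read-out is not stated. Compounds at 30 µM. The record gives no direction; compounds that gave an IC50 in retests scored well above the rest, so higher reads as stronger inhibition. Size under these conditions: about 69,000 compounds, about 1,000 of them at 50% or above in at least one test.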
C: 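Enzyme assay of the thioesterase domain of polyketide synthase 13; the read-out is not stated. Target: Polyketide synthase Pks13, Mycobacterium tuberculosis (UniProt I6X8D2). Tested at 30 µM. The record gives no direction; the compounds picked for IC50 retests had high values, so higher reads as stronger inhibition. About 67,000 compounds were tested under these conditions; 0.46% (about 300) showed 50% or more at least once.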
D: 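ClpP1P2, Mycobacterium tuberculosis (UniProt P9WPC5 and UniProt P9WPC3). Protease assay of ClpP1P2, read by the AMC dye that it sets free. Tested at 50 µM. Higher reads as stronger inhibition, judged from the few compounds that gave an IC50. Most other retested compounds had strongly negative values. Size under these conditions: about 69,000 compounds, about 10 of them at 50% or above in at least one test.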
E: 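Histidine-tRNA ligase, Trypanosoma cruzi CL Brener (UniProt Q4DA54). Enzyme assay of histidyl-tRNA synthetase; the read-out is not stated. Compounds at 30 µM. Higher reads as stronger inhibition (inferred: compounds with an IC50 in retests scored well above the rest). About 69,000 compounds were tested under these conditions; 0.045% (about 31) showed 50% or more at least once.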

Compound | A | B | C | D | E
COCc1ncn2c1CN(S(=O)(=O)c1cccc(F)c1)CC2 | 2.773 | 16.85 | -36.53 | 3.691 | 4.95
[H][C@@]12CO[C@@H](CNC(=O)c3ccco3)[C@]1([H])CCN(c1ccc(C)nn1)C2 | - | 0.9136 | - | - | -
COCCN(C)CC(=O)N1C[C@@H](C)[C@](O)(C(C)C)C1 | 6.734 | 46.75 | -7.028 | -2.759 | 8.081
Cc1nn(C)c(C)c1NC(=O)CNC(c1ccc(F)cc1)C1CCC1 (stereo not shown) | -0.2066 | 22.04 | -2.866 | 16.33 | 12.7
CNC(=O)[C@@]12CCO[C@@H]1CCN(S(=O)(=O)c1cccc(C)c1)C2 | 6.17 | - | -27.56 | -1.537 | 1.657
CNC(=O)C1CCN(c2nccc(CCC(F)(F)F)n2)C1 (stereo not shown) | 3.321 | 17.96 | -4.857 | -7.007 | 11.49
COCCNC(=O)c1nc(-c2cn(C)cn2)n2ccccc12 | 1.724 | 36.99 | 21.26 | -95.87 | 11.34
O=c1cc(N2CCc3ccccc3C2)cnn1CCC1CCOC1 (stereo not shown) | -1.623 | 44.37 | -27.29 | -1.585 | 7.143
Cc1ccc(CN2C[C@@H](C(=O)O)[C@H](c3ccccn3)C2)o1 | -3.23 | -18.98 | -12.94 | -0.244 | -4.615
COc1cccc(CN2CC[C@H](NC(C)=O)[C@@H](O)CC2)c1F | 2.906 | 18.65 & 4.877 | 13.39 | 1.273 | 3.333
CCOCCNC(=O)c1cc(Br)c2c(c1)OCCO2 | 2.829 | 28 | -49.84 | -11.16 | 6.897
O=C1CCC(=O)N1CCn1nnc(-c2cccc(Cl)c2)n1 | -3.439 | -1.205 | -27.05 | 8.623 | 6.077
COc1ccc(CCNC(=O)CC(NC(N)=O)c2ccccc2)cc1 (stereo not shown) | -4.177 | -1.078 | -17.36 | 7.608 | -1.235
O=C(NCCCc1nc(=O)[nH][nH]1)Nc1cccc(F)c1 | -1.768 | -2.587 | -38.21 | -2.473 | 1.754
Cc1sc(NS(=O)(=O)c2ccccc2)nc1C(=O)NC1CC1 | -20.83 | 9.622 | -10.91 | 4.613 | 5.699
CCN1CCN(c2ccc(F)cc2C(C)NCc2ccnn2C)CC1 (stereo not shown) | -53.65 | 11.21 | -26.88 | -0.5862 | 2.326
COc1ccc(CCNC(=O)CN2CCCC2c2noc(C)n2)cc1 (stereo not shown) | 7.653 | 0.8588 | -11.26 | -19.01 | 8.772
CN1C[C@@H]2CC[C@H](CC1=O)N2C(=O)c1ccc(-c2ccccc2)[nH]c1=O | 4.151 | - | 17.73 | -5.937 | 2.679
CC[C@@H]1N(Cc2ccncc2)CCC[C@]12CCC(=O)N2C.O=C(O)C(F)(F)F.O=C(O)C(F)(F)F | - | 14.25 | - | - | -
CCCn1ccc2cc(NC(=O)NCCn3cnnc3CC)ccc21 | -4.839 | 17.09 | -12.48 | 5.051 | 12.61
CC(C(=O)Nc1ncccn1)N1CCc2[nH]nc(C(F)(F)F)c2C1 (stereo not shown) | -0.7937 | -0.3626 | 0.7209 | -0.5655 | 13.79
CCOCC1CN(C(=O)COc2ccccc2C)Cc2ncn(C)c21 (stereo not shown) | - | - | -35.87 | -0.6627 | 6.329
O=C(O)C(F)(F)F.[H][C@@]12COC[C@]1(COCC(=O)N(C)C)CN(C1CCCC1)C2 | - | 40.35 | - | - | -
Cn1nc(C2CCCN(Cc3ccc(F)c(F)c3)C2)c2nccnc21 (stereo not shown) | 2.206 | - | 2.517 | -4.399 | 6.383
Cc1cc(C(=O)N2CCc3c(CN(C)C(C)C)n[nH]c3C2)[nH]n1 | 0.1616 | -3.139 | -6.544 | -2.981 | 4.02
Cc1ccc(OC2CCN(CCn3cncn3)CC2)cc1 | 2.773 | -11.02 | -0.3635 | -14.53 | 5.941
CSCC(C)(O)CNC(=O)c1ccc(F)cc1Br (stereo not shown) | 5.325 | -10.12 | -26.56 | -6.168 | 2.116
CN1C(=O)C2(CC(=O)Nc3[nH]ncc32)c2cc(F)ccc21 (stereo not shown) | 1.266 | 1.19 & 11.33 | -1.308 | -20.59 | 2.439
CCC(CO)N(Cc1ccco1)C(=O)c1ccccc1SC (stereo not shown) | 14.2 | 54.97 | 0.6312 | -13.12 | -0.5236
CCn1cc(NC(=O)C2CCN(Cc3ccccc3C#N)CC2)cn1 | 2.35 | 19.04 | -11.81 | 3.775 | 4.887
[H][C@]12CCN(C(=O)NCc3ccccc3)C[C@@]1([H])OCCN(C(C)=O)C2 | - | 36.05 | - | - | -
O=C(O)C(F)(F)F.[H][C@]12CCN(C(=O)C3CCCO3)[C@@]1([H])CCC(=O)N2Cc1cccnc1 (stereo partly shown) | - | -7.856 | - | - | -
OC1CN(Cc2cccc(N3CCOCC3)c2)Cc2ccccc21 (stereo not shown) | 2.195 | 34.51 | 3.329 | -17.49 | 0.9804
O=C(Cc1ccc2c(c1)OCO2)N[C@@H]1CCNC[C@H]1O | -2.746 | 17.12 | -19.26 | -1.494 | 6.077
CCOCC1CN(C(=O)c2ccncn2)Cc2cnn(C)c21 (stereo not shown) | - | - | -9.52 | 12.52 | 4.908

The first 4 entries again:

Compound	A	B	C	D	E
COCc1ncn2c1CN(S(=O)(=O)c1cccc(F)c1)CC2	2.773	16.85	-36.53	3.691	4.95
[H][C@@]12CO[C@@H](CNC(=O)c3ccco3)[C@]1([H])CCN(c1ccc(C)nn1)C2	-	0.9136	-	-	-
COCCN(C)CC(=O)N1C[C@@H](C)[C@](O)(C(C)C)C1	6.734	46.75	-7.028	-2.759	8.081
Cc1nn(C)c(C)c1NC(=O)CNC(c1ccc(F)cc1)C1CCC1 (stereo not shown)	-0.2066	22.04	-2.866	16.33	12.7